Experimental findings from patent US12729225B2, “Non-canonical SWI/SNF complex and uses thereof” (Dana-Farber Cancer Institute, Inc., priority 2018, dated 2026) are described below.

The data set relates to mSWI/SNF complexes. Put plainly: mSWI/SNF complex purification with HA-tagged baits and mass spectrometry (peptide counts). Also noted: species or system human.
Where [1] appears, read: 293_HA-BRD7: HA-BRD7 bait purification, total peptide count per co-purified protein.
Where [2] appears, read: 293_HA-BRD7: HA-BRD7 bait purification, unique peptide count per co-purified protein.

B1: ETFB (protein, UniProt P38117 2-255, looked up)
Electron transfer …: AELRVLVAVKRVIDYAVKIRVKPDRTGVVTDGVKHSMNPFCEIAVEEAVRLKEKKLVKEVIAVSCGPAQCQETIRTALAMGADRGIHVEVPPAEAERLGPLQVARVLAKLAEKEKVDLVLLGKQAIDDDCNQTGQMTAGFLDWPQGTFASQVTLEGDKLKVEREIDGGLETLRLKLPAVVTADLRLNEPRYATLPNIMKAKKKKIEVIKPGDLGVDLTSKLSVISVEDPPQRTAGVKVETTEDLVAKLKEIGRI
The molecule B1 displayed a Total under setting [1] of 5. Moreover, the Unique under setting [2] was 5.

B2: SLC25A5 (protein, UniProt P05141 1-298, looked up)
ADP/ATP translocase 2: MTDAAVSFAKDFLAGGVAAAISKTAVAPIERVKLLLQVQHASKQITADKQYKGIIDCVVRIPKEQGVLSFWRGNLANVIRYFPTQALNFAFKDKYKQIFLGGVDKRTQFWLYFAGNLASGGAAGATSLCFVYPLDFARTRLAADVGKAGAEREFRGLGDCLVKIYKSDGIKGLYQGFNVSVQGIIIYRAAYFGIYDTAKGMLPDPKNTHIVISWMIAQTVTAVAGLTSYPFDTVRRRMMMQSGRKGTDIMYTGTLDCWRKIARDEGGKAFFKGAWSNVLRGMGGAFVLVLYDEIKKYT
As to B2, the Total by setting is: under setting [1], 6; (293_HA-DPF2 purification, total peptides) 3. This molecule also returned a Unique under setting [2] of 4 and a Unique (293_HA-DPF2 purification, unique peptides) of 3.

B3: SND1 (protein, UniProt Q7KZF4 2-910, looked up)
Staphylococcal nuclease …: ASSAQSGGSSGGPAVPTVQRGIIKMVLSGCAIIVRGQPRGGPPPERQINLSNIRAGNLARRAAATQPDAKDTPDEPWAFPAREFLRKKLIGKEVCFTIENKTPQGREYGMIYLGKDTNGENIAESLVAEGLATRREGMRANNPEQNRLSECEEQAKAAKKGMWSEGNGSHTIRDLKYTIENPRHFVDSHHQKPVNAIIEHVRDGSVVRALLLPDYYLVTVMLSGIKCPTFRREADGSETPEPFAAEAKFFTESRLLQRDVQIILESCHNQNILGTILHPNGNITELLLKEGFARCVDWSIAVYTRGAEKLRAAERFAKERRLRIWRDYVAPTANLDQKDKQFVAKVMQVLNADAIVVKLNSGDYKTIHLSSIRPPRLEGENTQDKNKKLRPLYDIPYMFEAREFLRKKLIGKKVNVTVDYIRPASPATETVPAFSERTCATVTIGGINIAEALVSKGLATVIRYRQDDDQRSSHYDELLAAEARAIKNGKGLHSKKEVPIHRVADISGDTQKAKQFLPFLQRAGRSEAVVEYVFSGSRLKLYLPKETCLITFLLAGIECPRGARNLPGLVQEGEPFSEEATLFTKELVLQREVEVEVESMDKAGNFIGWLHIDGANLSVLLVEHALSKVHFTAERSSYYKSLLSAEEAAKQKKEKVWAHYEEQPVEEVMPVLEEKERSASYKPVFVTEITDDLHFYVQDVETGTQLEKLMENMRNDIASHPPVEGSYAPRRGEFCIAKFVDGEWYRARVEKVESPAKIHVFYIDYGNREVLPSTRLGTLSPAFSTRVLPAQATEYAFAFIQVPQDDDARTDAVDSVVRDIQNTQCLLNVEHLSAGCPHVTLQFADSKGDVGLGLVKEGLVMVEVRKEKQFQKVITEYLNAQESAKSARLNLWRYGDFRADDADEFGYSR
As for B3, the Total under setting [1] is 5. The molecule also had a Unique under setting [2] of 5.

B4: THRAP3 (protein, UniProt Q9Y2W1 2-955, looked up)
Thyroid hormone …: SKTNKSKSGSRSSRSRSASRSRSRSFSKSRSRSRSLSRSRKRRLSSRSRSRSYSPAHNRERNHPRVYQNRDFRGHNRGYRRPYYFRGRNRGFYPWGQYNRGGYGNYRSNWQNYRQAYSPRRGRSRSRSPKRRSPSPRSRSHSRNSDKSSSDRSRRSSSSRSSSNHSRVESSKRKSAKEKKSSSKDSRPSQAAGDNQGDEAKEQTFSGGTSQDTKASESSKPWPDATYGTGSASRASAVSELSPRERSPALKSPLQSVVVRRRSPRPSPVPKPSPPLSSTSQMGSTLPSGAGYQSGTHQGQFDHGSGSLSPSKKSPVGKSPPSTGSTYGSSQKEESAASGGAAYTKRYLEEQKTENGKDKEQKQTNTDKEKIKEKGSFSDTGLGDGKMKSDSFAPKTDSEKPFRGSQSPKRYKLRDDFEKKMADFHKEEMDDQDKDKAKGRKESEFDDEPKFMSKVIGANKNQEEEKSGKWEGLVYAPPGKEKQRKTEELEEESFPERSKKEDRGKRSEGGHRGFVPEKNFRVTAYKAVQEKSSSPPPRKTSESRDKLGAKGDFPTGKSSFSITREAQVNVRMDSFDEDLARPSGLLAQERKLCRDLVHSNKKEQEFRSIFQHIQSAQSQRSPSELFAQHIVTIVHHVKEHHFGSSGMTLHERFTKYLKRGTEQEAAKNKKSPEIHRRIDISPSTFRKHGLAHDEMKSPREPGYKAEGKYKDDPVDLRLDIERRKKHKERDLKRGKSRESVDSRDSSHSRERSAEKTEKTHKGSKKQKKHRRARDRSRSSSSSSQSSHSYKAEEYTEETEEREESTTGFDKSRLGTKDFVGPSERGGGRARGTFQFRARGRGWGRGNYSGNNNNNSNNDFQKRNREEEWDPEYTPKSKKYYLHDDREGEGSDKWVSRGRGRGAFPRGRGRFMFRKSSTSPKWAHDKFSGEEGEIEDDESGTENREEKDNIQPTTE
Regarding B4, under setting [1], the Total is given as 5. The molecule further registered a Unique under setting [2] of 5.

B5: RTCB (protein, UniProt Q9Y3I0 1-505, looked up)
RNA-splicing ligase RtcB …: MSRSYNDELQFLEKINKNCWRIKKGFVPNMQVEGVFYVNDALEKLMFEELRNACRGGGVGGFLPAMKQIGNVAALPGIVHRSIGLPDVHSGYGFAIGNMAAFDMNDPEAVVSPGGVGFDINCGVRLLRTNLDESDVQPVKEQLAQAMFDHIPVGVGSKGVIPMNAKDLEEALEMGVDWSLREGYAWAEDKEHCEEYGRMLQADPNKVSARAKKRGLPQLGTLGAGNHYAEIQVVDEIFNEYAAKKMGIDHKGQVCVMIHSGSRGLGHQVATDALVAMEKAMKRDKIIVNDRQLACARIASPEGQDYLKGMAAAGNYAWVNRSSMTFLTRQAFAKVFNTTPDDLDLHVIYDVSHNIAKVEQHVVDGKERTLLVHRKGSTRAFPPHHPLIAVDYQLTGQPVLIGGTMGTCSYVLTGTEQGMTETFGTTCHGAGRALSRAKSRRNLDFQDVLDKLADMGIAIRVASPKLVMEEAPESYKNVTDVVNTCHDAGISKKAIKLRPIAVIKG
Under setting [1], B5 returned a Total of 5. The same molecule gave a Unique under setting [2] of 5.

B6: DPM1 (protein, UniProt O60762 2-260, looked up)
Dolichol-phosphate …: ASLEVSRSPRRSRRELEVRSPRQNKYSVLLPTYNERENLPLIVWLLVKSFSESGINYEIIIIDDGSPDGTRDVAEQLEKIYGSDRILLRPREKKLGLGTAYIHGMKHATGNYIIIMDADLSHHPKFIPEFIRKQKEGNFDIVSGTRYKGNGGVYGWDLKRKIISRGANFLTQILLRPGASDLTGSFRLYRKEVLEKLIEKCVSKGYVFQMEMIVRARQLNYTIGEVPISFVDRVYGESKLGGNEIVSFLKGLLTLFATT
As to B6, under setting [1], the Total came to 5. Besides, under setting [2], the Unique is 4.

B7: DDX18 (protein, UniProt Q9NVP1 1-670, looked up)
ATP-dependent RNA helicase …: MSHLPMKLLRKKIEKRNLKLRQRNLKFQGASNLTLSETQNGDVSEETMGSRKVKKSKQKPMNVGLSETQNGGMSQEAVGNIKVTKSPQKSTVLTNGEAAMQSSNSESKKKKKKKRKMVNDAEPDTKKAKTENKGKSEEESAETTKETENNVEKPDNDEDESEVPSLPLGLTGAFEDTSFASLCNLVNENTLKAIKEMGFTNMTEIQHKSIRPLLEGRDLLAAAKTGSGKTLAFLIPAVELIVKLRFMPRNGTGVLILSPTRELAMQTFGVLKELMTHHVHTYGLIMGGSNRSAEAQKLGNGINIIVATPGRLLDHMQNTPGFMYKNLQCLVIDEADRILDVGFEEELKQIIKLLPTRRQTMLFSATQTRKVEDLARISLKKEPLYVGVDDDKANATVDGLEQGYVVCPSEKRFLLLFTFLKKNRKKKLMVFFSSCMSVKYHYELLNYIDLPVLAIHGKQKQNKRTTTFFQFCNADSGTLLCTDVAARGLDIPEVDWIVQYDPPDDPKEYIHRVGRTARGLNGRGHALLILRPEELGFLRYLKQSKVPLSEFDFSWSKISDIQSQLEKLIEKNYFLHKSAQEAYKSYIRAYDSHSLKQIFNVNNLNLPQVALSFGFKVPPFVDLNVNSNEGKQKKRGGGGGFGYQKTKKVEKSKIFKHISKKSSDSRQFSH
B7 gave a Total under setting [1] of 5. Under setting [2], the Unique came to 5.

B8: DDX31 (protein, UniProt Q9H8H2 1-851, looked up)
ATP-dependent DNA helicase …: MAPDLASQRHSESFPSVNSRPNVILPGREGRREGLPPGGGTRGSLVPTRPVPPSPAPLGTSPYSWSRSGPGRGGGAGSSRVPRGVPGPAVCAPGSLLHHASPTQTMAAADGSLFDNPRTFSRRPPAQASRQAKATKRKYQASSEAPPAKRRNETSFLPAKKTSVKETQRTFKGNAQKMFSPKKHSVSTSDRNQEERQCIKTSSLFKNNPDIPELHRPVVKQVQEKVFTSAAFHELGLHPHLISTINTVLKMSSMTSVQKQSIPVLLEGRDALVRSQTGSGKTLAYCIPVVQSLQAMESKIQRSDGPYALVLVPTRELALQSFDTVQKLLKPFTWIVPGVLMGGEKRKSEKARLRKGINILISTPGRLVDHIKSTKNIHFSRLRWLVFDEADRILDLGFEKDITVILNAVNAECQKRQNVLLSATLTEGVTRLADISLHDPVSISVLDKSHDQLNPKDKAVQEVCPPPAGDKLDSFAIPESLKQHVTVVPSKLRLVCLAAFILQKCKFEEDQKMVVFFSSCELVEFHYSLFLQTLLSSSGAPASGQLPSASMRLKFLRLHGGMEQEERTAVFQEFSHSRRGVLLCTDVAARGLDLPQVTWIVQYNAPSSPAEYIHRIGRTARIGCHGSSLLILAPSEAEYVNSLASHKINVSEIKMEDILCVLTRDDCFKGKRWGAQKSHAVGPQEIRERATVLQTVFEDYVHSSERRVSWAKKALQSFIQAYATYPRELKHIFHVRSLHLGHVAKSFGLRDAPRNLSALTRKKRKAHVKRPDLHKKTQSKHSLAEILRSEYSSGMEADIAKVKKQNAPGEPGGRPLQHSLQPTPCFGRGKTLKWRKTQKGVQRDSKTSQKV
B8 gave a Total under setting [1] of 5. Moreover, under setting [2], the Unique is 5.

B9: IDH3A (protein, UniProt P50213 28-366, looked up)
Isocitrate dehydrogenase …: TGGVQTVTLIPGDGIGPEISAAVMKIFDAAKAPIQWEERNVTAIQGPGGKWMIPSEAKESMDKNKMGLKGPLKTPIAAGHPSMNLLLRKTFDLYANVRPCVSIEGYKTPYTDVNIVTIRENTEGEYSGIEHVIVDGVVQSIKLITEGASKRIAEFAFEYARNNHRSNVTAVHKANIMRMSDGLFLQKCREVAESCKDIKFNEMYLDTVCLNMVQDPSQFDVLVMPNLYGDILSDLCAGLIGGLGVTPSGNIGANGVAIFESVHGTAPDIAGKDMANPTALLLSAVMMLRHMGLFDHAARIEAACFATIKDGKSLTKDLGGNAKCSDFTEEICRRVKDLD
Molecule B9 came in with a Total under setting [1] of 6. Also, the Unique under setting [2] was 4.
